# Data taken from paper PMC10767445.
# Amino acid sequences for entries named in this document (tags omitted).
# UniProt Q9Y6M1: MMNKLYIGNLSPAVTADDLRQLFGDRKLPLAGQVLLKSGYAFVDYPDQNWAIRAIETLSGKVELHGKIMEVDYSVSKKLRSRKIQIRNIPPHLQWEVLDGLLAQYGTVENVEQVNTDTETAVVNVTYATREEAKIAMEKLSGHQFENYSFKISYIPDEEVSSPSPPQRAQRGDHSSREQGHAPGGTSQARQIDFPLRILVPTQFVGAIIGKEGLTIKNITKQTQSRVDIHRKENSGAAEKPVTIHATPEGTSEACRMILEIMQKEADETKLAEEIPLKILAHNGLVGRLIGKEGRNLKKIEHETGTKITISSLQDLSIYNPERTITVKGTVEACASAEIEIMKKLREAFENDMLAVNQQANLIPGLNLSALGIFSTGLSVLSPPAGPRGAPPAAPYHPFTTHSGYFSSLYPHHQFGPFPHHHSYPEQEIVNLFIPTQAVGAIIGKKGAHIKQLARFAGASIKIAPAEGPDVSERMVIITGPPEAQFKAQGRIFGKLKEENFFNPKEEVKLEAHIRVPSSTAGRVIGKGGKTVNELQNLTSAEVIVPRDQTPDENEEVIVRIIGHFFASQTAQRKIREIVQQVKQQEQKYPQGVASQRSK
# UniProt P60842: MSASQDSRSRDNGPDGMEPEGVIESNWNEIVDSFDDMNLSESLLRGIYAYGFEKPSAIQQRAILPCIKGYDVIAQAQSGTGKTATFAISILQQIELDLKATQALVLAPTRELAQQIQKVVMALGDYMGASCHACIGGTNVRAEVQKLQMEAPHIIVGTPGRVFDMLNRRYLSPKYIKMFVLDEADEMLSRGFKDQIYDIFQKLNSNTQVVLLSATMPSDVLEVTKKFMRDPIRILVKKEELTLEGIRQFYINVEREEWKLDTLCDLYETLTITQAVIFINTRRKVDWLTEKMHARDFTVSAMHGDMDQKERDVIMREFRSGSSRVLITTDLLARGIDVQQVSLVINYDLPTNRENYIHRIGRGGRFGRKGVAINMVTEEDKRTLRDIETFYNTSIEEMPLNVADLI
# No constants are given. Whether binding was seen depends on the method and setting. In cells and extracts the contact can be indirect. Some entries that bind do so weakly or less than the wild type.
# Target: IGF2BP2 (human (endogenous in MDA-MB-231 and HCC-1806)) (UniProt Q9Y6M1)
# Test: co-IP; endogenous proteins in MDA-MB-231 and HCC-1806 lysates; lysis buffer 50 mM Tris-HCl pH 7.5, 150 mM NaCl, 15 mM MgCl2, 5 mM EDTA, 0.1% NP-40; antibody on Protein A/G magnetic beads, 4 °C overnight; western blot
substance,measurement,value
EIF4A1 (from UniProt P60842 1-406),binding,binds
